Amino acid sequences for entries named in this document (tags omitted). A change or cut given only in a name is not applied to a line headed by its entry.
UniProt Q5TB80: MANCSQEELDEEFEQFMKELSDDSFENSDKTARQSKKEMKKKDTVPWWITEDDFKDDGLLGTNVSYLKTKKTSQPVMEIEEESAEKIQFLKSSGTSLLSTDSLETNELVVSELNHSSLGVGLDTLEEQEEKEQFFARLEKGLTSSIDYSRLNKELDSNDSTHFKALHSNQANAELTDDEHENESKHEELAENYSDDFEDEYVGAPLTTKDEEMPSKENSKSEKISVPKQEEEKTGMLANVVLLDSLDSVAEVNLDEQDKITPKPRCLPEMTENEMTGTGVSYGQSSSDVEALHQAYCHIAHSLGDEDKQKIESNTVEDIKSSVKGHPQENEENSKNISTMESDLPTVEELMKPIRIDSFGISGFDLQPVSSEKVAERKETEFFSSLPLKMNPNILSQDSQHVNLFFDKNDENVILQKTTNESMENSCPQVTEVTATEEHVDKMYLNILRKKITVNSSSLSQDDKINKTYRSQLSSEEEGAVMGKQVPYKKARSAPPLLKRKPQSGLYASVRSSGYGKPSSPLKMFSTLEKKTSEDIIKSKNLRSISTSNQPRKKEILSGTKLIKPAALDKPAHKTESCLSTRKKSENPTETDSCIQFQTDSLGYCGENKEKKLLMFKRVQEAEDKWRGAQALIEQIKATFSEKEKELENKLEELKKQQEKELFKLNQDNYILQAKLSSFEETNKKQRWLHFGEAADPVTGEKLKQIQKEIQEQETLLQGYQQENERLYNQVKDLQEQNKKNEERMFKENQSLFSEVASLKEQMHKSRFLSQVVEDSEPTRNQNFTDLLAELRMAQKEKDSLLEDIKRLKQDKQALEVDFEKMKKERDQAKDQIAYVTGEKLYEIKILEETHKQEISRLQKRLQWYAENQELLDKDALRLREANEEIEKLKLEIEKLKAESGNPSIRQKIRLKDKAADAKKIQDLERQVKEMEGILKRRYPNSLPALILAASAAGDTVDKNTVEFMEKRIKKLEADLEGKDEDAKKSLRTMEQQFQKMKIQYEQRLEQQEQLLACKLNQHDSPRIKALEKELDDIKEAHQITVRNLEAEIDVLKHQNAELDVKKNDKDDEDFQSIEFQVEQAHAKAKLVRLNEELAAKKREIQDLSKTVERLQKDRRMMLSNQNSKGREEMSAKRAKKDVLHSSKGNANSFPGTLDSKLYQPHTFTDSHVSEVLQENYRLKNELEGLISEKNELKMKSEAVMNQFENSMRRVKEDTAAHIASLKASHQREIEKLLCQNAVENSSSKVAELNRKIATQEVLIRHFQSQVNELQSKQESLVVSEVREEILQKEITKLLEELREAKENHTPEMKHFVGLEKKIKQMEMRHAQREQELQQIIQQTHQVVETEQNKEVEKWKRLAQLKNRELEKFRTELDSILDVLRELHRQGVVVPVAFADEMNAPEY
UniProt Q4KMQ1: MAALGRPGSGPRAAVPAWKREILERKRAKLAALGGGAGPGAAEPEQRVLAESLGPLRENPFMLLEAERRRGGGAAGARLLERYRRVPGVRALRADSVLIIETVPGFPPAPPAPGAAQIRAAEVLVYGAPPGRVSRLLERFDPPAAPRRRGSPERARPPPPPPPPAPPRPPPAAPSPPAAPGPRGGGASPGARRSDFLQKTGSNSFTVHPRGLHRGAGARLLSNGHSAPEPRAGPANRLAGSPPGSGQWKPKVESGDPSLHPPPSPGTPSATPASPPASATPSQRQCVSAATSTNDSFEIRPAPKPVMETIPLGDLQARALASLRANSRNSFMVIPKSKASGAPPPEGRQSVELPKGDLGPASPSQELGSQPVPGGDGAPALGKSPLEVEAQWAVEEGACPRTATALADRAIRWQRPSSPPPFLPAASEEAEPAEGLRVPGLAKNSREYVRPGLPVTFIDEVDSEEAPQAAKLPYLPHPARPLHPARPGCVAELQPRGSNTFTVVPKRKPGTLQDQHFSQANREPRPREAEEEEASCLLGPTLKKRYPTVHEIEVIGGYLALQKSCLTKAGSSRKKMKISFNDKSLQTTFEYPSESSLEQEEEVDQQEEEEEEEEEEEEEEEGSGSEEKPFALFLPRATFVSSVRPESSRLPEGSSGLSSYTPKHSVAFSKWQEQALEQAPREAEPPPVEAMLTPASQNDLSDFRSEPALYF
UniProt Q53TQ3, whole entry: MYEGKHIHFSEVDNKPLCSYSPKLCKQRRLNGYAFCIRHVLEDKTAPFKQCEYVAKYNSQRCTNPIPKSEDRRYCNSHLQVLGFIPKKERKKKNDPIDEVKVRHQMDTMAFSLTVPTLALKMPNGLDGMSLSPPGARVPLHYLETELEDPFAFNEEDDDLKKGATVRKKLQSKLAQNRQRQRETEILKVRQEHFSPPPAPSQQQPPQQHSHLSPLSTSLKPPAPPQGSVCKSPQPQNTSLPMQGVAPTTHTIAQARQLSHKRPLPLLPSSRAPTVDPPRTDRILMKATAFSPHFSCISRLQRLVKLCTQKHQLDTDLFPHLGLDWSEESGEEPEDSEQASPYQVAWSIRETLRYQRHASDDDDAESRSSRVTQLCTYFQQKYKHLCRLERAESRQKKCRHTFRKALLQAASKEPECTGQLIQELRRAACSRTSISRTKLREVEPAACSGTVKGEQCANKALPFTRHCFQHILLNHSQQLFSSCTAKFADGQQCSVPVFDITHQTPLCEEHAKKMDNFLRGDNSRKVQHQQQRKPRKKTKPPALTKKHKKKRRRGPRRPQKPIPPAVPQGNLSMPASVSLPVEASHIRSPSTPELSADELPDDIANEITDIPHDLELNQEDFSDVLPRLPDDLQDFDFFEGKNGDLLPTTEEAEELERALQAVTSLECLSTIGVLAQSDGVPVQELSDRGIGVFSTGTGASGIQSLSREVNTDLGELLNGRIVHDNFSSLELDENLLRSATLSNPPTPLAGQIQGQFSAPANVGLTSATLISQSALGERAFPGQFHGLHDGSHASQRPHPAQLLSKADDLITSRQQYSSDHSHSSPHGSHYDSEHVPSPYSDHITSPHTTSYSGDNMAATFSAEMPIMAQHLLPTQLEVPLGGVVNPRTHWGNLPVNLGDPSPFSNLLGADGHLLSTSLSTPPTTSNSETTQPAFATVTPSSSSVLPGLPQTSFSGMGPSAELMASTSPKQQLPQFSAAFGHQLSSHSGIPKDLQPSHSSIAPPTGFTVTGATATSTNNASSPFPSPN
UniProt Q5T8I3: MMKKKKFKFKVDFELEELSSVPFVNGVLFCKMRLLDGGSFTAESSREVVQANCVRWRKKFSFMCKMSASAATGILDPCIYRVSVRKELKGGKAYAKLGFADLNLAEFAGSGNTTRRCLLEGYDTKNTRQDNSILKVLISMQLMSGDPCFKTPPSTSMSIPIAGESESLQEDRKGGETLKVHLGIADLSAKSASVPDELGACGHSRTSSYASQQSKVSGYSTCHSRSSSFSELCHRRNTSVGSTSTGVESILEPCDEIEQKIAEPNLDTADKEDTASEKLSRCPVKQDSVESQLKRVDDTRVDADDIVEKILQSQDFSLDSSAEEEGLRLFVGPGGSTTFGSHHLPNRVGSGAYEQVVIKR
UniProt Q5VIR6: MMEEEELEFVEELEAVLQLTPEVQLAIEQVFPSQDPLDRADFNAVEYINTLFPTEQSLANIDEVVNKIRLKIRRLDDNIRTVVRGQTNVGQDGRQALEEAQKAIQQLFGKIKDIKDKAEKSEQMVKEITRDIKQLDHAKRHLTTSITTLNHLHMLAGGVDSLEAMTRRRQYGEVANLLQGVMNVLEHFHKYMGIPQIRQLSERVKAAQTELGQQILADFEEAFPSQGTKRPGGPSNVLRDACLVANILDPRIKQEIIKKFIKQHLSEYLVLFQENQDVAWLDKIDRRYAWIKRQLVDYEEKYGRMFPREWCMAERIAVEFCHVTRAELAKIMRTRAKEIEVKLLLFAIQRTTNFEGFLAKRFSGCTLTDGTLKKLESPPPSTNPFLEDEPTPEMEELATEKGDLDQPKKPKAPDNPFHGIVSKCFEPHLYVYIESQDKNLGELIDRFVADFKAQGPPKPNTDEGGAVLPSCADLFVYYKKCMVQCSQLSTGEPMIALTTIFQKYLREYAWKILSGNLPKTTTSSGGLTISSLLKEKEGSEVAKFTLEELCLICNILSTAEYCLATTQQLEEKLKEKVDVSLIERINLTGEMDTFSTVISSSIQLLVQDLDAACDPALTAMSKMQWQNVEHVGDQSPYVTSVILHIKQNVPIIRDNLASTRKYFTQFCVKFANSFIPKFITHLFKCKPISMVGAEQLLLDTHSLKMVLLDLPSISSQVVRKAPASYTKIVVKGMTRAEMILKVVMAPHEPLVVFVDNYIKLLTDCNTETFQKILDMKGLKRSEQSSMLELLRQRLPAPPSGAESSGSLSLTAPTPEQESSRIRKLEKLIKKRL
UniProt Q562F6: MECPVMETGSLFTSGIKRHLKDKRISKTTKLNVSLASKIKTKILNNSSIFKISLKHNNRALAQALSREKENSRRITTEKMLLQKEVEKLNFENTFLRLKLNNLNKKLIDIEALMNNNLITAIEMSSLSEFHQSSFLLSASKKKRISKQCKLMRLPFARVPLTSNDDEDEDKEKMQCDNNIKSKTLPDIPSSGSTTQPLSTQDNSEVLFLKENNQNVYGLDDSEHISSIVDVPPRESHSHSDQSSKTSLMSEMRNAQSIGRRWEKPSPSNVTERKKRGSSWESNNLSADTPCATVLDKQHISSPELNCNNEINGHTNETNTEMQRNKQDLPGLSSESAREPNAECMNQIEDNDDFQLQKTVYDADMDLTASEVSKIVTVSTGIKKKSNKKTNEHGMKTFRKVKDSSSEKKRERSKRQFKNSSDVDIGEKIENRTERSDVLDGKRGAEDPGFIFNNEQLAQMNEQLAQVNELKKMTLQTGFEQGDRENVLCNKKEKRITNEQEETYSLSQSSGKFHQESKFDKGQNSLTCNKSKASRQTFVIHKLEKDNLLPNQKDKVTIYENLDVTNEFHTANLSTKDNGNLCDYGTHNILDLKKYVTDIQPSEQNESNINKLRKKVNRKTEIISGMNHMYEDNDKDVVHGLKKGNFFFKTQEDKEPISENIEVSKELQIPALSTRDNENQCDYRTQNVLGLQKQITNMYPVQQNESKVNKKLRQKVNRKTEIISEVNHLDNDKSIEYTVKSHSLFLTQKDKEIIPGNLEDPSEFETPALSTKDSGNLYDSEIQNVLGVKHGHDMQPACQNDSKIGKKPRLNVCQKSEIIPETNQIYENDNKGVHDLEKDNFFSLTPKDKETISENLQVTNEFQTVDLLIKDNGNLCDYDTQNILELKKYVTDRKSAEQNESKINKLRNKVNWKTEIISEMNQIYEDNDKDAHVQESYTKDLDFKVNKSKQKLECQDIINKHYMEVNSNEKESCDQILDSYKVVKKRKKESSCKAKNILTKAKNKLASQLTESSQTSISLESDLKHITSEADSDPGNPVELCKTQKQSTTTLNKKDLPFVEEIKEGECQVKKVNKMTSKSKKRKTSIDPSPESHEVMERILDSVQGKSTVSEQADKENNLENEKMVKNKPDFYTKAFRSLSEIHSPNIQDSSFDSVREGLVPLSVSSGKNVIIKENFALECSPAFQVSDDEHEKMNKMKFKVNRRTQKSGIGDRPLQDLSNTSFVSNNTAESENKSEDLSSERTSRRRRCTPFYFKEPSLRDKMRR
UniProt Q5TF39: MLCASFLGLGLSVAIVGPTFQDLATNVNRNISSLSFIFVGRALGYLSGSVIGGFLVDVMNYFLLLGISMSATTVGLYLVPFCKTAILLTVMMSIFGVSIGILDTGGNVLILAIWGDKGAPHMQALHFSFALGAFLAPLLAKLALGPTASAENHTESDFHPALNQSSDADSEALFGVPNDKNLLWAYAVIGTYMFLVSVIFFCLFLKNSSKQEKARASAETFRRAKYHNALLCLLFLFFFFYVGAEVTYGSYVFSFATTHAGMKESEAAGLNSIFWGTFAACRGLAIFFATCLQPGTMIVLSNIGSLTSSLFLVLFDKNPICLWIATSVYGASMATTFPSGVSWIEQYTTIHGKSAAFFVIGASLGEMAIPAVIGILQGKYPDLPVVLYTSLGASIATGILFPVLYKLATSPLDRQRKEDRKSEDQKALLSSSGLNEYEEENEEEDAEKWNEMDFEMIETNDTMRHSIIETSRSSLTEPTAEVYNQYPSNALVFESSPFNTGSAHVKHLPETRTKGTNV
UniProt Q5M9Q1: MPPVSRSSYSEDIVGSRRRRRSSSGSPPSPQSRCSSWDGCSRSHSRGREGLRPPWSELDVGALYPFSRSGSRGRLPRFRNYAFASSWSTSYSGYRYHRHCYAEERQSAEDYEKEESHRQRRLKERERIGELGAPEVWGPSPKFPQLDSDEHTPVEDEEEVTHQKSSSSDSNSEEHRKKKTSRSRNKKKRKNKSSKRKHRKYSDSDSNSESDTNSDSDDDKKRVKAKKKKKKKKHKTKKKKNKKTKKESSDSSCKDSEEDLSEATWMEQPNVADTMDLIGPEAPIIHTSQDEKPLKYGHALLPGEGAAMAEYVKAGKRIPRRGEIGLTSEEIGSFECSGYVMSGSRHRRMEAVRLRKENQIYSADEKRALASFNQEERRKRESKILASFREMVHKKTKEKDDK

This is one part of the list. Small differences around the control level are noise.
The targets below were run with CN[C@@H]1C[C@H]2O[C@@](C)([C@@H]1OC)n1c3ccccc3c3c4c(c5c6ccccc6n2c5c31)C(=O)NC4 [staurosporine] (assay: log2 fold change of tryptic peptide abundance, ligand vs vehicle (limited proteolysis) (log2 ratio); higher = more trypsin-susceptible (destabilized)). Details: ligand concentration: 20 uM; sample: K562 cleared lysate; digestion: 4 min, 22 C (HT-PELSA RT4min, Orbitrap Astral).
For “CEP162 (peptide sequence: KNEERMFK, peptide start residue: 740) (UniProt Q5TB80)”, the log2 fold change was 0.25.
“TPRN (peptide sequence: ATFVSSVRPESSR, peptide start residue: 637) (UniProt Q4KMQ1)” showed a log2 fold change of 0.0246.
For “UniProt Q53TQ3 (peptide sequence: ATAFSPHFSCISR, peptide start residue: 287)”, the log2 fold change was -0.318.
With “FAM102B (peptide sequence: IAEPNLDTADKEDTASEKLSR, peptide start residue: 261) (UniProt Q5T8I3)” the log2 fold change was -0.92.
In the case of “VPS53 (peptide sequence: SEQSSMLELLR, peptide start residue: 781) (UniProt Q5VIR6)”, the log2 fold change is reported as 0.316.
Work on “UniProt Q562F6 (peptide sequence: TQEDKEPISENIEVSK, peptide start residue: 650)” yielded a log2 fold change of -0.421.
In the case of “UniProt Q5TF39 (peptide sequence: HSIIETSR, peptide start residue: 465)”, the log2 fold change is reported as -0.0843.
Target “UniProt Q5M9Q1 (peptide sequence: ENQIYSADEKR, peptide start residue: 370)” has a log2 fold change of -0.213.

From the supplement of paper PMC12819154, “High-throughput peptide-centric local stability assay extends protein–ligand identification to membrane proteins, tissues and bacteria” (Nature Structural & Molecular Biology, 2025)
